# No constants are given. Whether binding was seen depends on the method and setting. Some binding calls cover weakened binding; strength is not graded here.
# The chains behind the UniProt entries cited, without tags or fusion partners. Residues count along the entry.
# UniProt P56536, residues 2-955: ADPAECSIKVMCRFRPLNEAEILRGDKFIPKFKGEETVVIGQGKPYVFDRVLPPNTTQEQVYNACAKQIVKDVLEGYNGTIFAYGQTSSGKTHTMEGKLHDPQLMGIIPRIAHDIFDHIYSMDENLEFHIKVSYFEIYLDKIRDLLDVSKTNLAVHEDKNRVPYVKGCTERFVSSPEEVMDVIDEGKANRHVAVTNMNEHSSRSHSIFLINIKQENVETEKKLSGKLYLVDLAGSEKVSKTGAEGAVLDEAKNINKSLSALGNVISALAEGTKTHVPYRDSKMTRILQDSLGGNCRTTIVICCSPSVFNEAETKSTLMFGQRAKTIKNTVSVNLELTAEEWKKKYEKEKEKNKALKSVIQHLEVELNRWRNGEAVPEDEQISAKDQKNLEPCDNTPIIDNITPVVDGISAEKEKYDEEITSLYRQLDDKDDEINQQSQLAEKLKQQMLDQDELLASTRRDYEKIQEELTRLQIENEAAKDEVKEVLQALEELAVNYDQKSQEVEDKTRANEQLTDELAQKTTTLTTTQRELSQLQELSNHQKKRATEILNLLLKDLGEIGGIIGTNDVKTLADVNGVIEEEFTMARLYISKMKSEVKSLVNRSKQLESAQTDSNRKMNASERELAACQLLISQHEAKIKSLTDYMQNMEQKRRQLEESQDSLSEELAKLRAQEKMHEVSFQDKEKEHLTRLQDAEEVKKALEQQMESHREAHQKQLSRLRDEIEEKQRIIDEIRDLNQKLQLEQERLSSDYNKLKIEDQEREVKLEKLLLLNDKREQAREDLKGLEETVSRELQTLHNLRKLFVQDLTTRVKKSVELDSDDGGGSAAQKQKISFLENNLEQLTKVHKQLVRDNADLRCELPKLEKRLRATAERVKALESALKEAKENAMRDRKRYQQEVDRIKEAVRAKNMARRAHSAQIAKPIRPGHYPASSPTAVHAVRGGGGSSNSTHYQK
# Target: His-Kif5C (KHC), wild type, the heavy chain of Kinesin-1^WT (rat) (UniProt P56536)
# Assay: SEC; KHC (His-KIF5C or an elbow variant) and KLC1 co-expressed in E. coli BL21(DE3) from two plasmids, His-Trap, then Superose6 10/300 in 20 mM HEPES pH 7.4, 150 mM NaCl, 1 mM MgCl2, 0.1 mM ADP, 0.5 mM TCEP; fractions on Coomassie-stained gels
substance,measurement,value
"His-Kif5C (KHC), wild type, the heavy chain of Kinesin-1^WT (from UniProt P56536 2-955)",binding,binds

# Reference: publication PMC11213707
